Results: publication doi:10.1101/815506
These are yes or no findings as the source states them, for the method shown. Binding seen in cells or lysates may run through a third protein. Some entries that bind do so weakly or less than the wild type. Sequences can lack the tags named with a protein.

Sequences of proteins named here, by UniProt entry; tags and fusion partners are left off. Residues count along the entry.
UniProt O15455, residues 24-904: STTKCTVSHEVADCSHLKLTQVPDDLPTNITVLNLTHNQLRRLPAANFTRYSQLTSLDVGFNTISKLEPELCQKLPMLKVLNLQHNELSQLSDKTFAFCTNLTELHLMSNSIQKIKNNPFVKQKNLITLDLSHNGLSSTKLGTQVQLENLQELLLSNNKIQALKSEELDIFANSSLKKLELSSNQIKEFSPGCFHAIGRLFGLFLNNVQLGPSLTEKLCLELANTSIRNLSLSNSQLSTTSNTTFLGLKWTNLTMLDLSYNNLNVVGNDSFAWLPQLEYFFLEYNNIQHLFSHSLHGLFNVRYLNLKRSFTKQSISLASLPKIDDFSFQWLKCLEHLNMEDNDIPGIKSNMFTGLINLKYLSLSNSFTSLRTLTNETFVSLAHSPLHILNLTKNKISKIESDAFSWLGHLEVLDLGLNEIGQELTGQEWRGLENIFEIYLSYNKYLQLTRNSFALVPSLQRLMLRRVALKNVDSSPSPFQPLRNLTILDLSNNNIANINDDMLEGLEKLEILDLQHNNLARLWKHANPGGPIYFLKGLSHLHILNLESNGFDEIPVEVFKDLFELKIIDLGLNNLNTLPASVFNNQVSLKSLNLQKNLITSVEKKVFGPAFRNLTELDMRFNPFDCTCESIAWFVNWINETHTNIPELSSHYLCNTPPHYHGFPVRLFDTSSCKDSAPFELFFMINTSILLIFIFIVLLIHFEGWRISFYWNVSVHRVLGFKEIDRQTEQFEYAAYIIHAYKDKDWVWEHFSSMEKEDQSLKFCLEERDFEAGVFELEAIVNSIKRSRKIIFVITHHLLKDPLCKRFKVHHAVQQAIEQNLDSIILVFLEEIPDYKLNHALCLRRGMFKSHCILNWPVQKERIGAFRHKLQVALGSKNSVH
UniProt Q8N884: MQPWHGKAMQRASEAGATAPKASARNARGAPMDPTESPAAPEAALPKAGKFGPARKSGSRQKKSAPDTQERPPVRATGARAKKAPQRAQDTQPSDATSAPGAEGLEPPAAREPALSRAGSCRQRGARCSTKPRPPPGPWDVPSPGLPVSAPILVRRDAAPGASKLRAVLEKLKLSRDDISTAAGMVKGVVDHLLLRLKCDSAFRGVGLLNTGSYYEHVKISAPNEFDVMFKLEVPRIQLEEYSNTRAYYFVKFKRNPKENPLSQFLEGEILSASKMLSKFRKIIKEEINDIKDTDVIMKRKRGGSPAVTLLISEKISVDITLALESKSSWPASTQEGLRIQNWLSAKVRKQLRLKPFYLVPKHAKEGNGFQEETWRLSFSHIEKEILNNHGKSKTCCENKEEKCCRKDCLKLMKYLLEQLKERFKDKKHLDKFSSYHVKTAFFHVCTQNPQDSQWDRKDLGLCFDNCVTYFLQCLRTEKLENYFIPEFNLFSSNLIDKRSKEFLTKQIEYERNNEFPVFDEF

Tests used:
Assay in all cases: co-IP
GFP-IRGM (human) = target: T1, GFP-IRGM (human) (UniProt A1A4Y4)
T1 sequence: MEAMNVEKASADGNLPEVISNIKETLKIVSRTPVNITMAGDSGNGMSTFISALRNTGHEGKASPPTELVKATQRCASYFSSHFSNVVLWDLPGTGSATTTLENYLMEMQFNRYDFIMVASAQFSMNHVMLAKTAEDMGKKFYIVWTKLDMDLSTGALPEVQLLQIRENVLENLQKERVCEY

Flag-TLR3 = Flag-TLR3 (UniProt O15455)
Flag-RIG-I = target: T2, Flag-RIG-I (UniProt O95786)
T2 sequence: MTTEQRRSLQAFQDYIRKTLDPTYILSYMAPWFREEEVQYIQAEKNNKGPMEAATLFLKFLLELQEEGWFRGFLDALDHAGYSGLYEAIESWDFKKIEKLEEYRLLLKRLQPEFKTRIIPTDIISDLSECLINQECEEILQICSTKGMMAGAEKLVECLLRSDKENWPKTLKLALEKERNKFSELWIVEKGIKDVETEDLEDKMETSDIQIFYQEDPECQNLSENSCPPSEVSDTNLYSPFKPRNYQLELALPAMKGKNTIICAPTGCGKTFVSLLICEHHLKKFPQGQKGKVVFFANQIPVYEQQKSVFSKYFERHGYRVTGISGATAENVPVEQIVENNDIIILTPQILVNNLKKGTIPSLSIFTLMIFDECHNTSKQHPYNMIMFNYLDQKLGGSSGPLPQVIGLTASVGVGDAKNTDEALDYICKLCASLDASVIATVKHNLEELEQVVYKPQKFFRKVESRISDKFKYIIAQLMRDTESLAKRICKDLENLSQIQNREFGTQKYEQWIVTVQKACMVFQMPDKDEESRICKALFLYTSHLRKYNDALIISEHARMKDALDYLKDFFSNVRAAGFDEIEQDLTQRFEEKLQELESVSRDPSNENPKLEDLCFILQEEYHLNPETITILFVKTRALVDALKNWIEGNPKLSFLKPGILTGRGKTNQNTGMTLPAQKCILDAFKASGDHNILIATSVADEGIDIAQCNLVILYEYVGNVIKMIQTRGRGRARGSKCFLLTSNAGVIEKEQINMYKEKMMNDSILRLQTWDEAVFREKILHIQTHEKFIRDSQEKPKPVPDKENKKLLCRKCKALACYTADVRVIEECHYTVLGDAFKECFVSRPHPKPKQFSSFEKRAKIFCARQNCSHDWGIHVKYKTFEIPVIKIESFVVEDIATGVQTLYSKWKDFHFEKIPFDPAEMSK

Flag-cGAS = Flag-cGAS (UniProt Q8N884)

B1: Flag-RIG-I (protein, UniProt O95786 1-925)
chain: T2 sequence
binding (GFP-IRGM (human)): binds

B2: GFP-IRGM (protein, UniProt A1A4Y4 1-181)
chain: T1 sequence
binding (Flag-TLR3): binds | binding (Flag-RIG-I): binds | binding (Flag-cGAS): binds

B3: Myc-AIM2 (protein, UniProt O14862 1-343)
chain: MESKYKEILLLTGLDNITDEELDRFKFFLSDEFNIATGKLHTANRIQVATLMIQNAGAVSAVMKTIRIFQKLNYMLLAKRLQEEKEKVDKQYKSVTKPKPLSQAEMSPAASAAIRNDVAKQRAAPKVSPHVKPEQKQMVAQQESIREGFQKRCLPVMVLKAKKPFTFETQEGKQEMFHATVATEKEFFFVKVFNTLLKDKFIPKRIIIIARYYRHSGFLEVNSASRVLDAESDQKVNVPLNIIRKAGETPKINTLQTQPLGTIVNGLFVVQKVTEKKKNILFDLSDNTGKMEVLGVRNEDTMKCKEGDKVRLTFFTLSKNGEKLQLTSGVHSTIKVIKAKKKT
binding (GFP-IRGM (human)): no binding

B4: Flag-NDP52 (protein, UniProt Q13137 1-446)
chain: MEETIKDPPTSAVLLDHCHFSQVIFNSVEKFYIPGGDVTCHYTFTQHFIPRRKDWIGIFRVGWKTTREYYTFMWVTLPIDLNNKSAKQQEVQFKAYYLPKDDEYYQFCYVDEDGVVRGASIPFQFRPENEEDILVVTTQGEVEEIEQHNKELCKENQELKDSCISLQKQNSDMQAELQKKQEELETLQSINKKLELKVKEQKDYWETELLQLKEQNQKMSSENEKMGIRVDQLQAQLSTQEKEMEKLVQGDQDKTEQLEQLKKENDHLFLSLTEQRKDQKKLEQTVEQMKQNETTAMKKQQELMDENFDLSKRLSENEIICNALQRQKERLEGENDLLKRENSRLLSYMGLDFNSLPYQVPTSDEGGARQNPGLAYGNPYSGIQESSSPSPLSIKKCPICKADDICDHTLEQQQMQPLCFNCPICDKIFPATEKQIFEDHVFCHSL
binding (GFP-IRGM (human)): no binding
